Source: article PMC10799014
No constants are given. Whether binding was seen depends on the method and setting. Binding seen in cells or lysates may run through a third protein. Tags and fused reporters may be left off the sequences shown.

Sequences of proteins named here, by UniProt entry; tags and fusion partners are left off. A change or cut given only in a name is not applied to a line headed by its entry.
UniProt P18206: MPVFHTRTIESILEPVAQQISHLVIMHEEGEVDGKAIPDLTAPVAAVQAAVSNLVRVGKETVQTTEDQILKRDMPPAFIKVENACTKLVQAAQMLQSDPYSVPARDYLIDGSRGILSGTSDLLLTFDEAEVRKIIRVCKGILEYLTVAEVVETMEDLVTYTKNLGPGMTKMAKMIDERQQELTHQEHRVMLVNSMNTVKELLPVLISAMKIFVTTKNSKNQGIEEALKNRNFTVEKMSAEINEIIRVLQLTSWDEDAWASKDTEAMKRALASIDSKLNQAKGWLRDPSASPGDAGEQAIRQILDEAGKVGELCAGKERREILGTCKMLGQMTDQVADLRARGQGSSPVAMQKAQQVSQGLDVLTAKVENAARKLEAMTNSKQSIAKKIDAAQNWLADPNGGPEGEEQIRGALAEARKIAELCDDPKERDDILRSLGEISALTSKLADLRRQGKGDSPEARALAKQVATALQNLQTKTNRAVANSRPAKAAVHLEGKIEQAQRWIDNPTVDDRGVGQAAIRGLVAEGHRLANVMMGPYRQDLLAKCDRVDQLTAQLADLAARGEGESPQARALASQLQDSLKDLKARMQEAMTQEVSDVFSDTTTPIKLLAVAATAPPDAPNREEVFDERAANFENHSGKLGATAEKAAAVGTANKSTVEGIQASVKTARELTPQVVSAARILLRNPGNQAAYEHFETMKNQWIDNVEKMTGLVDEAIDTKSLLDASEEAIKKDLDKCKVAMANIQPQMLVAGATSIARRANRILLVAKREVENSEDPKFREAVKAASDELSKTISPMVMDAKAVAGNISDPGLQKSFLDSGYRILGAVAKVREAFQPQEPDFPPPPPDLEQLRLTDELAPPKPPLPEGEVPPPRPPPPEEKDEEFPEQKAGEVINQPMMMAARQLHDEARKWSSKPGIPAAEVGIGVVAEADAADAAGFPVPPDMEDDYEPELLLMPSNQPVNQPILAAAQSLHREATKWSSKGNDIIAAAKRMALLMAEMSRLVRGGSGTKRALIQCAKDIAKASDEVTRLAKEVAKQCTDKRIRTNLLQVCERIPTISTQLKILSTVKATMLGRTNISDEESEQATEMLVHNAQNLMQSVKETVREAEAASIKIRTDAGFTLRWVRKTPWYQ

Molecular target: vinculin, Venus-fragment fusion for BiFC (UniProt P18206)
Assay: split reporter; BiFC with Venus fragments V1 and V2 in HeLa cells, 200 ng of each plasmid, fixed after 24 h, confocal microscopy with uniform laser settings

B1: rapsyn, Venus-fragment fusion for BiFC (protein, UniProt Q13702 1-412)
chain: MGQDQTKQQIEKGLQLYQSNQTEKALQVWTKVLEKSSDLMGRFRVLGCLVTAHSEMGRYKEMLKFAVVQIDTARELEDADFLLESYLNLARSNEKLCEFHKTISYCKTCLGLPGTRAGAQLGGQVSLSMGNAFLGLSVFQKALESFEKALRYAHNNDDAMLECRVCCSLGSFYAQVKDYEKALFFPCKAAELVNNYGKGWSLKYRAMSQYHMAVAYRLLGRLGSAMECCEESMKIALQHGDRPLQALCLLCFADIHRSRGDLETAFPRYDSAMSIMTEIGNRLGQVQALLGVAKCWVARKALDKALDAIERAQDLAEEVGNKLSQLKLHCLSESIYRSKGLQRELRAHVVRFHECVEETELYCGLCGESIGEKNSRLQALPCSHIFHLRCLQNNGTRSCPNCRRSSMKPGFV
B1 was tested, and the binding was “no binding”.
